# Laboratory results: PubChem BioAssay AID743454 (Peter MacCallum Cancer Centre, 2014)
# Purpose: 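Search for knock-downs that restore vorinostat killing in resistant colon cancer cells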 (primary screen)
# System: human HCT116-VR colon cancer cells, selected for vorinostat resistance
# Knock-down reagent: siRNA pool against human genes, 40 nM siRNA pool
# Duration: vorinostat for 24 h, read-out about 72 h after transfection
# Conditions: vorinostat at 2.5 µM final
# Read-out: 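Cell viability by CellTiter-Fluor and caspase 3/7 activity by luminescence, each scaled to mock wells per plate, duplicates averaged, then robust z-scored over all plates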
# Reading the numbers: viability robust z-score: higher = more viable cells than screen typical; caspase robust z-score: higher = more caspase 3/7 activity than screen typical
# Rule for the call: 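Hits are knock-downs in viability class RV1/RV2 or caspase class CA1/CA2, excluding ones that killed cells in the no-drug cell-count arm; hits then retested with single siRNAs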
# This is a random part of about 18,000 reagents tested. Of all reagents, 450 (2.5%) got an active call. 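Single biological run; no consistent viability z cut-off exists, so the class columns, not z-scores, define the calls.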 A number with no mark means an inactive call. Reagent sequences are not shown.
viability hit class,caspase hit class,viability robust z-score,caspase robust z-score,Gene
no change,no change,-1.07,0.92,TFR2
no change,no change,1.82,0.64,TM4SF20
no change,no change,0.62,-0.76,ZNF622
no change,no change,1.57,-0.52,ARAF
no change,no change,1.2,-0.38,SCGB1D2
no change,no change,0.43,1.14,BIN2
no change,no change,0.54,0.42,BACC1
no change,no change,0.42,-0.24,COA7
no change,no change,-0.89,-0.44,ZNHIT1
no change,no change,-0.15,-0.57,PGBD3
no change,no change,0.79,0.52,ABHD8
no change,no change,-0.26,-0.34,CSN2
no change,no change,-0.52,-0.26,CHLSN
no change,no change,0.35,-0.52,SAMD1
no change,no change,-0.24,0.24,DLX4

The list goes on, starting with the last 2 of the part before.
viability hit class,caspase hit class,viability robust z-score,caspase robust z-score,Gene
no change,no change,0.35,-0.52,SAMD1
no change,no change,-0.24,0.24,DLX4
no change,no change,-0.22,-0.98,P2RY11
no change,no change,-1.32,1.52,PCNA
no change,no change,-2.09,-0.06,CCDC134
no change,no change,1.57,0.62,MTIF2
no change,no change,0.6,-0.26,SLC20A1
no change (active),CA2 (caspase activation),-2.98,6.06,POLR2J
no change,no change,0.16,-0.32,COL26A1
no change,no change,-2.27,-0.91,TAS2R9
